According to paper PMC3647082:
These are yes or no findings as the source states them, for the method shown. Some binding calls cover weakened binding; strength is not graded here.

By UniProt entry, the sequences of proteins in these tests, tags left out. Residues count along the entry.
UniProt P56757: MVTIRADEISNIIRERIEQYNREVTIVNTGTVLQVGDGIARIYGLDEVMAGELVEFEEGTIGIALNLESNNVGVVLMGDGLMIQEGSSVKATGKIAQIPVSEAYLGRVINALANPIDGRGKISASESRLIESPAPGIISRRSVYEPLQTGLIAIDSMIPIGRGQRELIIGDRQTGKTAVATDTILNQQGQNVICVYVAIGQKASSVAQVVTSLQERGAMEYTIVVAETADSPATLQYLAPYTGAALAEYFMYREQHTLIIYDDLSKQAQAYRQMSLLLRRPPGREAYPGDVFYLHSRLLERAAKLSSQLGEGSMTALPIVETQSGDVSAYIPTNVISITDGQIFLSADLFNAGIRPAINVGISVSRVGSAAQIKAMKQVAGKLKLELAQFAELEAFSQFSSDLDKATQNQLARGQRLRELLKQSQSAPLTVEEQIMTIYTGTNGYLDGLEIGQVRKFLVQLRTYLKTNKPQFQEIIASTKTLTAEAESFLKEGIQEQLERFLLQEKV
UniProt P19366: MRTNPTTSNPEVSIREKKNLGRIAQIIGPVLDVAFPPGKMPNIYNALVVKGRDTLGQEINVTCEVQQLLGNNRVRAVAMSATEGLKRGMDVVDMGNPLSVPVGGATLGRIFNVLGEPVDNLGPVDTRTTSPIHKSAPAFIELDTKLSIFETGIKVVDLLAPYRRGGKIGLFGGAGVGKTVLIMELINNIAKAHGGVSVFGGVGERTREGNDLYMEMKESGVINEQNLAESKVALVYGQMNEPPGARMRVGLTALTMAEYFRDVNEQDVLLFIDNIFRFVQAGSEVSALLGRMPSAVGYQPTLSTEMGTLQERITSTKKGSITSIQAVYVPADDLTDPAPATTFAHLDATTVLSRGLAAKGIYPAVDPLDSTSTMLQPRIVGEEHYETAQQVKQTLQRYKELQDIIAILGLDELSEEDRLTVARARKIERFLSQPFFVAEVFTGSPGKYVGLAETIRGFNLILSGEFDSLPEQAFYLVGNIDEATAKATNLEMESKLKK
UniProt P56753: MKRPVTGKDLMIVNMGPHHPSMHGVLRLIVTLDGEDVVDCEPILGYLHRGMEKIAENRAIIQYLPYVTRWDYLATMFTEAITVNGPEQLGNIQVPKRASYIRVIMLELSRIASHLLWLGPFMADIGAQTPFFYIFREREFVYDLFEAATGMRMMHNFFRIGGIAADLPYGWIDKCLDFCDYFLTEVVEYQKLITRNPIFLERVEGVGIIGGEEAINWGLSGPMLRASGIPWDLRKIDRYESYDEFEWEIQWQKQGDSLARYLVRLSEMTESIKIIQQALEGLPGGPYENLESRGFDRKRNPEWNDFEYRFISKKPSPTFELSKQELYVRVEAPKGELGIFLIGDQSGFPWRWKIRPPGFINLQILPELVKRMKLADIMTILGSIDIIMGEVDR
UniProt P56752: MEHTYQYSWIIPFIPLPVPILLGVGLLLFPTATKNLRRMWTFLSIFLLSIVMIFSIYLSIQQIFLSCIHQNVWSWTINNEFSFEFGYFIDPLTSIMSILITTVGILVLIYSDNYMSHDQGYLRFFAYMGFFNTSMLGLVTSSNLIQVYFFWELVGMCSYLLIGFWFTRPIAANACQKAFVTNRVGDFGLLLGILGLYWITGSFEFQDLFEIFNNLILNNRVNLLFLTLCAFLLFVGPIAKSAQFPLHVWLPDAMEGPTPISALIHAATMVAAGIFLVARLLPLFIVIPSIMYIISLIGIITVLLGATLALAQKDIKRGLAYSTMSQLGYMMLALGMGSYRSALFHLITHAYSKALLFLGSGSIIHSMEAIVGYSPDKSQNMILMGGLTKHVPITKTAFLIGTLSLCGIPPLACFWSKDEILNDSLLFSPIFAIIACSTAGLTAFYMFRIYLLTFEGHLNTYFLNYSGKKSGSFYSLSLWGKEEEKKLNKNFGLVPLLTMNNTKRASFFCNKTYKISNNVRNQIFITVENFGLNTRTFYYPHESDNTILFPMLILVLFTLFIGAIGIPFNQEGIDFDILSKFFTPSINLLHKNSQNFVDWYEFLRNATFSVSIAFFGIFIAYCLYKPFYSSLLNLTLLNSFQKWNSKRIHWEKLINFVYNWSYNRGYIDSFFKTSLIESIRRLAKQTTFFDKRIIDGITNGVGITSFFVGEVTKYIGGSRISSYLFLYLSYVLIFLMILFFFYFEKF
UniProt P56755: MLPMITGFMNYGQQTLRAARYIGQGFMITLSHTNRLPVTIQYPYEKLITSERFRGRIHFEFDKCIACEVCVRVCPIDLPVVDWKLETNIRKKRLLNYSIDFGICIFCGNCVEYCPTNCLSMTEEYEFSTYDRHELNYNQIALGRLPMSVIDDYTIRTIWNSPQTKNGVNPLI
UniProt P56754: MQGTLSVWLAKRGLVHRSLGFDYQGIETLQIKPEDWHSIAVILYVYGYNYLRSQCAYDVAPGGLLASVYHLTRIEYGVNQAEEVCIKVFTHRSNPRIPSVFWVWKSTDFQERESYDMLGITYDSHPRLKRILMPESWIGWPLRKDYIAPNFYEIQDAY
UniProt Q9CAC5, residues 47-191: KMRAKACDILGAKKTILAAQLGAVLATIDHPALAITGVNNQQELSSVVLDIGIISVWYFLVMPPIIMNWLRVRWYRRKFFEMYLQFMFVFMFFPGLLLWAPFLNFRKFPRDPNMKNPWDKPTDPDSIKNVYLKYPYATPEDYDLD
UniProt Q9LVM2, residues 46-209: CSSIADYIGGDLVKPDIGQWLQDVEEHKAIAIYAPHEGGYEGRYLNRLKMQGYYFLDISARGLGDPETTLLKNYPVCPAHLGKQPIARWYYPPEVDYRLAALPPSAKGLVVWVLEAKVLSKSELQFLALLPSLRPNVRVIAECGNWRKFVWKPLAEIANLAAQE
UniProt Q9S9N6, residues 45-461: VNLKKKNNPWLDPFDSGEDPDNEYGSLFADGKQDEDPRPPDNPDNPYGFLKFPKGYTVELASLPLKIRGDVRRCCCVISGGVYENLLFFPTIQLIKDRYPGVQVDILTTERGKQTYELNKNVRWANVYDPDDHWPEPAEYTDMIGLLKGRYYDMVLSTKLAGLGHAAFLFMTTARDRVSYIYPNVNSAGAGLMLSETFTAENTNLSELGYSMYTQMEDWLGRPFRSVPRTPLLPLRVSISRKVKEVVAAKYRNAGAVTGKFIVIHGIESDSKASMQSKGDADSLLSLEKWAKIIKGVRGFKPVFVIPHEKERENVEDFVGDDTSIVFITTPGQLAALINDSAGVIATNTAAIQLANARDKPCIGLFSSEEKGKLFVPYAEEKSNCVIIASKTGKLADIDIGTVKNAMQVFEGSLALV
UniProt O80634, residues 81-238: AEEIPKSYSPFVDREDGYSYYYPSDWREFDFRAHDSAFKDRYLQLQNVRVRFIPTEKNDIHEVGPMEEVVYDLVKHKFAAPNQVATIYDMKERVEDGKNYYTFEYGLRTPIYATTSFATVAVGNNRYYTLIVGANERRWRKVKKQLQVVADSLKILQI
UniProt Q9XI73, residues 69-190: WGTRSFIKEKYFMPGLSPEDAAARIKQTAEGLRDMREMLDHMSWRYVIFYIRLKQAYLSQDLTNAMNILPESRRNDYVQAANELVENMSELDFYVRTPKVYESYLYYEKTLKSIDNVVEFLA
UniProt P56771, residues 36-320: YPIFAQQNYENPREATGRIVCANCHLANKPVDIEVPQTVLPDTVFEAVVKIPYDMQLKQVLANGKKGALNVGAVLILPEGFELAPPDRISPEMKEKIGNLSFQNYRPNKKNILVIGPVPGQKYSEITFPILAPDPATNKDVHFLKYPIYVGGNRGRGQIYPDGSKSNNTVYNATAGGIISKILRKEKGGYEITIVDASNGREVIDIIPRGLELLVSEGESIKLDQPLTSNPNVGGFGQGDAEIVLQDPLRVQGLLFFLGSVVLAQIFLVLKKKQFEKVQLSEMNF
UniProt Q9ZR03, residues 51-229: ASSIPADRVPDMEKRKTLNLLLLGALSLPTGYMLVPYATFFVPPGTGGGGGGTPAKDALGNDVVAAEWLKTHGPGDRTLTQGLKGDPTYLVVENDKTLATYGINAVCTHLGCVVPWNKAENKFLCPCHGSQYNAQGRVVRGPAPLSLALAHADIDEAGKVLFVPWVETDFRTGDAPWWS
UniProt P56766: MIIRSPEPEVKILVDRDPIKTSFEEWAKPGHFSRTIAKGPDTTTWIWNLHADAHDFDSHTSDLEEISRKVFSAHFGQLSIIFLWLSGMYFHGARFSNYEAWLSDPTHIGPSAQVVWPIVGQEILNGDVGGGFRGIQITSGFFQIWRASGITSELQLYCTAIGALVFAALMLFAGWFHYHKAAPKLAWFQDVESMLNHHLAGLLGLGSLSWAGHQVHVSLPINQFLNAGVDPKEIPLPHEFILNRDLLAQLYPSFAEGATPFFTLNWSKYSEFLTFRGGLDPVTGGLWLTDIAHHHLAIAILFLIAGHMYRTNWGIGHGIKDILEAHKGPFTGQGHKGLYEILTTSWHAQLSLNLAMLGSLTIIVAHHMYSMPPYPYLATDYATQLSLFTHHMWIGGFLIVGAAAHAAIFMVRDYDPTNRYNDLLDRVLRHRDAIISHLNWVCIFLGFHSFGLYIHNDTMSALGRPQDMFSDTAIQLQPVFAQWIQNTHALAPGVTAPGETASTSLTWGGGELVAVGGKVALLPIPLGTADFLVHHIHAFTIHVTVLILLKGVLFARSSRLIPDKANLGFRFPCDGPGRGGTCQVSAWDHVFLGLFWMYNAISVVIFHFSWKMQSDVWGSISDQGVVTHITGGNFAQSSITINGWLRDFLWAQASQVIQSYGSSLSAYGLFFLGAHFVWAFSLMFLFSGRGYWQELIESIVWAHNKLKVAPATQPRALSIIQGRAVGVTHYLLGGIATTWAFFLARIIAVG
UniProt Q01667, residues 36-241: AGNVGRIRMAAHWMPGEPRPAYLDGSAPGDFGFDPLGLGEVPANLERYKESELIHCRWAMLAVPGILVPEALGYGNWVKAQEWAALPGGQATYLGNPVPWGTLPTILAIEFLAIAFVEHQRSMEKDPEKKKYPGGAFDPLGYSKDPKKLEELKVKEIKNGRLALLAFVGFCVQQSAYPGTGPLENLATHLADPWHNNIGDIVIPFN
UniProt Q9SYW8, residues 44-257: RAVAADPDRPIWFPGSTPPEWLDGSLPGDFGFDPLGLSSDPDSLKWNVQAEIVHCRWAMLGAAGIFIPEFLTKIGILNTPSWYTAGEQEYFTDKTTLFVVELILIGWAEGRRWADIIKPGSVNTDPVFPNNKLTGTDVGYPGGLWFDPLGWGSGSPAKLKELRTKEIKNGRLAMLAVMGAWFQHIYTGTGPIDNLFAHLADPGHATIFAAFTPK
UniProt Q9SY97, residues 40-273: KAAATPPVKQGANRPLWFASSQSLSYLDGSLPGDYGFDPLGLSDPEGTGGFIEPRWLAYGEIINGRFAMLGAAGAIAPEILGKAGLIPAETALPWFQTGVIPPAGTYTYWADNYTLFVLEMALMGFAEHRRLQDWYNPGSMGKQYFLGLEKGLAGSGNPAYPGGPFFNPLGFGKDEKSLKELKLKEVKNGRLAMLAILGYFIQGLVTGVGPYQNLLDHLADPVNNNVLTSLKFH
UniProt P56767: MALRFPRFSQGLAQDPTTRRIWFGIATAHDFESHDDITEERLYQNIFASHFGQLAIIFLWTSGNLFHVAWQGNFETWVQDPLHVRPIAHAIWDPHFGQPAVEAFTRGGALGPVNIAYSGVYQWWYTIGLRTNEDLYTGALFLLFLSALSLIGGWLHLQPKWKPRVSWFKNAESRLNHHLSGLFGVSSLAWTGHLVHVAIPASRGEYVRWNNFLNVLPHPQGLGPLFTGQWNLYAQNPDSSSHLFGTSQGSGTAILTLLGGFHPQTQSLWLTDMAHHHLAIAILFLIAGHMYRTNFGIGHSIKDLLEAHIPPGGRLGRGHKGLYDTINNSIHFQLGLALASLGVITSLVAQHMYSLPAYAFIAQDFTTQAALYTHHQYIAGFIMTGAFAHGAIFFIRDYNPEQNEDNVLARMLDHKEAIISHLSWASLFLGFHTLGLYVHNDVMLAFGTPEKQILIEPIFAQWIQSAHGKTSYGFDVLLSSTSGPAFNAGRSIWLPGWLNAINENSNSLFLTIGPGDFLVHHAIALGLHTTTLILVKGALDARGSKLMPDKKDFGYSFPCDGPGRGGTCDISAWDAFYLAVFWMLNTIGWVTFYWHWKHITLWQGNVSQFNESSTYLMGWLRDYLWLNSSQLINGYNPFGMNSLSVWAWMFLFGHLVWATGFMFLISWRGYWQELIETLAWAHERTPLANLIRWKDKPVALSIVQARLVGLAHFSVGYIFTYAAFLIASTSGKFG
UniProt Q9SHE8, residues 68-221: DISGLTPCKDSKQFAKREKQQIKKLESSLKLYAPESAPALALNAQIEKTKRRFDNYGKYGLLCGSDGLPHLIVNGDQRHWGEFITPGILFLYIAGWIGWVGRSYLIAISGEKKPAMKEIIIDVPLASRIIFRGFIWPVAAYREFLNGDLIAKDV
UniProt Q9S7N7, residues 61-160: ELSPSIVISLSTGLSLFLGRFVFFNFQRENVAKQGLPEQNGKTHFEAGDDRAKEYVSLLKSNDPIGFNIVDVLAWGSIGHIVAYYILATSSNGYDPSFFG
UniProt Q9SUI5, residues 47-130: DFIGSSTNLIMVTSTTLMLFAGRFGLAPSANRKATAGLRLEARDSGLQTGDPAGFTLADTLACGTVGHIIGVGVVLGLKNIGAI
UniProt Q9SUI4, residues 51-219: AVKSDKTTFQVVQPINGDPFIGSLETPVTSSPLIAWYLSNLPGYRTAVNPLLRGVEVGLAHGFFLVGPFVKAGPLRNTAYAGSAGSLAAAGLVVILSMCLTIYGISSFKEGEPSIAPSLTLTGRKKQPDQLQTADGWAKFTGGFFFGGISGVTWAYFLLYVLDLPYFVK

B1: AtpI (protein, UniProt P56758 1-249)
chain: MNVLSCSINTLIKEGLYEISGVEVGQHFYWQIGGFQVHAQVLITSWVVIAILLGSAVLAIRNPQTIPTDGQNFFEFVLEFIRDVSKTQIGEEYGPWVPFIGTLFLFIFVSNWSGALLPWKIIQLPQGELAAPTNDINTTVALALLTSVAYFYAGLSKKGLGYFSKYIQPTPILLPINILEDFTKPLSLSFRLFGNILADELVVVVLVSLVPLVVPIPVMFLGLFTSGIQALIFATLAAAYIGESMEGHH
B2: AtpD (protein, UniProt Q9SSS9 48-234)
chain: SATAASSYAMALADVAKRNDTMELTVTDIEKLEQVFSDPQVLNFFANPTITVEKKRQVIDDIVKSSSLQSHTSNFLNVLVDANRINIVTEIVKEFELVYNKLTDTQLAEVRSVVKLEAPQLAQIAKQVQKLTGAKNVRVKTVIDASLVAGFTIRYGESGSKLIDMSVKKQLEDIASQLELGEIQLAT
B3: AtpC1 (protein, UniProt Q01908 51-373)
chain: ASLRELRDRIDSVKNTQKITEAMKLVAAAKVRRAQEAVVNGRPFSETLVEVLYNINEQLQTDDVDVPLTKVRPVKKVALVVVTGDRGLCGGFNNFIIKKAEARIKELKGLGLEYTVISVGKKGNSYFLRRPYIPVDKYLEAGTLPTAKEAQAVADDVFSLFISEEVDKVELLYTKFVSLVKSEPVIHTLLPLSPKGEICDINGTCVDAAEDEFFRLTTKEGKLTVERETFRTPTADFSPILQFEQDPVQILDALLPLYLNSQILRALQESLASELAARMSAMSSASDNASDLKKSLSMVYNRKRQAKITGEILEIVAGANAQV
B4: AtpF (protein, UniProt P56759 1-184)
chain: MKNLTDSFVYLGHWPSAGSFGFNTDILATNPINLSVVFGVLIFFGKGVLNDLLDNRKQRILNTIRNSEELREGAIQQLENARARLRNVETEADKFRVNGYSEIEREKLNLINSTYKTLKQLENYKNETILFEQQRTINQVRERVFQQALQGAIGTLNSCLSNELHLRTINANIGMFGTMKEITD
B5: AtpE (protein, UniProt P09468 1-132)
chain: MTLNLCVLTPNRIVWDSEVKEIILSTNSGQIGVLANHAPIATAVDIGILKIRLANQWLTMALMGGFARIGNNEITILVNDAEKNSDIDPQEAQQTLEIAEANLRKAEGKRQTIEANLALRRARTRVEALNTI
B6: NdhU (protein, UniProt Q84VQ4 54-218)
chain: AEAETEGGSSTAVDEAPKESPSLISALNVERALRGLPITDVDHYGRLGIFRNCSYDQVTIGYKERVKELKEQGLDEEQLKTKMDLIKESYTILSTVEERRMYDWSLARSEKAERYVWPFEVDIMEPSREEPPPQEPEDVGPTRILGYFIGAWLVLGVALSVAFNR
B7: PsaH2 (protein, UniProt Q9SUI6 51-145)
chain: KYGDKSVYFDLEDLGNTTGQWDVYGSDAPSPYNPLQSKFFETFAAPFTKRGLLLKFLILGGGSLLTYVSANSTGDVLPIKRGPQEPPKLGPRGKL

Each molecule was assayed against AtpA (Arabidopsis thaliana (endogenous in thylakoid membranes)) (UniProt P56757) (assay: native gel or EMSA; BN-PAGE (4-13% gradient, 4°C, 14 h at 40 V) of purified Arabidopsis thylakoid membranes solubilised with 1% n-dodecyl-β-D-maltoside; lane cut into 60 slices, in-gel trypsin digestion, LC-MS/MS; emPAI-based migration profiles compared (co-migration)).

Row | binding | Molecule
1 | binds | AtpB (from UniProt P19366 1-498)
2 | binds | B1
3 | binds | B2
4 | binds | B3
5 | binds | B4
6 | binds | B5

What follows are molecules tested against NdhH (Arabidopsis thaliana (endogenous in thylakoid membranes)) (UniProt P56753) in the same assay as above.

Row | binding | Molecule
7 | binds | NdhE (from UniProt P26289 1-101)
8 | binds | NdhF (from UniProt P56752 1-746)
9 | binds | NdhI (from UniProt P56755 1-172)
10 | binds | NdhJ (from UniProt P56754 1-158)
11 | binds | NdhK (from UniProt P56756 1-225)
12 | binds | NdhL (from UniProt Q9CAC5 47-191)
13 | binds | NdhN (from UniProt Q9LVM2 46-209)
14 | binds | PnsB1 (from UniProt Q9S9N6 45-461)
15 | binds | PnsB2 (from UniProt Q94AQ8 18-348)
16 | binds | PnsB5 (from UniProt Q9FG89 49-212)
17 | binds | PnsL1 (from UniProt O80634 81-238)
18 | binds | PnsL2 (from UniProt Q9XI73 69-190)
19 | binds | PnsL3 (from UniProt Q9SGH4 78-220)
20 | binds | B6

These molecules were tested against PetA (Arabidopsis thaliana (endogenous in thylakoid membranes)) (UniProt P56771) in the same assay as above.

Row | binding | Molecule
21 | binds | PetB (from UniProt P56773 1-215)
22 | binds | PetC (from UniProt Q9ZR03 51-229)
23 | binds | PetD (from UniProt P56774 1-160)

These molecules were tested against PsaA (Arabidopsis thaliana (endogenous in thylakoid membranes)) (UniProt P56766) in the same assay as above.

Row | binding | Molecule
24 | binds | Lhca1 (from UniProt Q01667 36-241)
25 | binds | Lhca2 (from UniProt Q9SYW8 44-257)
26 | binds | Lhca3 (from UniProt Q9SY97 40-273)
27 | binds | PsaB (from UniProt P56767 1-734)
28 | binds | PsaF (from UniProt Q9SHE8 68-221)
29 | binds | PsaG (from UniProt Q9S7N7 61-160)
30 | binds | PsaK (from UniProt Q9SUI5 47-130)
31 | binds | PsaL (from UniProt Q9SUI4 51-219)
32 | binds | B7
